The target of the assay is GST-BIR2 (glutathione-S-transferase-BIR2 fusion protein) (human) (UniProt P98170). The experiment in a line: plate assay: biotinylated peptide on Neutravidin, GST-XIAP BIR2 added, anti-GST detection, FIG. 45I.

Chains of the proteins cited; added tags and fusions are not shown. Residues count along the entry.
UniProt P98170, residues 124-240: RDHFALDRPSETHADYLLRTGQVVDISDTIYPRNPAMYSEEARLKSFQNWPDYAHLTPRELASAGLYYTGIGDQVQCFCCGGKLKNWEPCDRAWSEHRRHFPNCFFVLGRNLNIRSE

Our source for the binding values is patent US20050119176A1 (BURNHAM INSTITUTE, published 2005).

Results are given in words; binding and its absence hold for the method and conditions named. Some results given as binding are weak or reduced against the parent protein; the word gives no strength.

Consider AVPIAQK (biotin, position not stated) [biotinylated SMAC 7-mer peptide], for which the binding result is “binds”.
